# Reference: PMC7819943, “Rice protein-binding microarrays: a tool to detect cis-acting elements near promoter regions in rice”
# Sequences of proteins named here, by UniProt entry; tags and fusion partners are left off.
# UniProt Q0JBA9, entry or part of it: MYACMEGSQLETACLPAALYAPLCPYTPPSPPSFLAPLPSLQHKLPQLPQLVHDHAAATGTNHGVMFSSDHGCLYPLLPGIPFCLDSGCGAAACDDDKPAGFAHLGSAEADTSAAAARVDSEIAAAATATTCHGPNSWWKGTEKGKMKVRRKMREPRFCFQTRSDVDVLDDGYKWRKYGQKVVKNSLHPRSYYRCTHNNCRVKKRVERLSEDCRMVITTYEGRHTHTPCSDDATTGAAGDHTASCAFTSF
# Some of the results follow.
# Target: OsWRKY34 (Oryza sativa, UniProt Q0JBA9 1-250)
# Experiment: protein-binding microarray (RPBM); PBS, 2% BSA, 51.3 ng/ul salmon testes DNA, 50 uM zinc acetate, 200 nM TF, 25 C, 1 h; high values mean tight binding
# Details: protein: recombinant; tags: N-terminal polyhistidine and DsRed monomer fusion (pET32a); label: CyDye5-dUTP incorporated in the synthesized complementary strand; 3' TTTTT single-stranded linker to array surface; dsDNA, one strand shown
# In short: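 Per-feature fluorescence intensity (arbitrary units), read on an Axon 4000B scanner, is the binding signal. Transcription factors carrying an N-terminal polyhistidine tag and DsRed fusion were expressed in E. coli BL21-CodonPlus and purified on Ni–NTA. A custom Agilent array, made double-stranded by primer extension with Cy5-dUTP and blocked with 2% BSA, was incubated with 200 nM protein in PBS, 2% BSA, salmon testes DNA and 50 µM zinc acetate at 25 °C for 1 h and then washed.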
row,Sequence,binding signal
1,CCAGTCTTGATTCCATTTCCTCTATTTGTATCCCCAAATACGGAGTCACCTAGTGCAG,9900 fluorescence intensity (a.u.)
2,ATATAGCCTACTACTAGCTCCAAATCATCTATAGTCAATGCGGAGTCACCTAGTGCAG,8120 fluorescence intensity (a.u.)
3,AGGCTATCGTATGACTTTCTTCTGCTTTCATTTGTGTTCACGGAGTCACCTAGTGCAG,15300 fluorescence intensity (a.u.)
4,CCCACGCGCCCGGCTATAAATCGCATCCCCGCATTCCTAGCGGAGTCACCTAGTGCAG,8440 fluorescence intensity (a.u.)
5,GCAGGTTCTTCTATCCAACAAATTCATGGCAGCGCCTTTCCGGAGTCACCTAGTGCAG,8610 fluorescence intensity (a.u.)
6,CGAAATCACCGATTCCGCCATCCCACCACCACACAAATCCCGGAGTCACCTAGTGCAG,8080 fluorescence intensity (a.u.)
7,GATTAGCACAAGCTATTCACTATAATTTTGGTCAAACATTCGGAGTCACCTAGTGCAG,8210 fluorescence intensity (a.u.)
8,AACGCGGCCCATTTACACTCCACTCTCCAATCGCCGTCCGCGGAGTCACCTAGTGCAG,9480 fluorescence intensity (a.u.)
9,CGGCGCGCCGTGATTGTGCCTGATTGGGGTGGGGTTGGGGCGGAGTCACCTAGTGCAG,25300 fluorescence intensity (a.u.)
10,TCCGGCTTCCGTGCACGGCGTGTCTGTTCACCTTCTTGTTCGGAGTCACCTAGTGCAG,8090 fluorescence intensity (a.u.)
11,ATCTACCTTGATATGTTTTCTTGTGGTTCTATTAGTGAAACGGAGTCACCTAGTGCAG,10300 fluorescence intensity (a.u.)
12,TATAGTTGTGTACTAGTGTCACTCACGCCACCCGTCTCATCGGAGTCACCTAGTGCAG,8870 fluorescence intensity (a.u.)
13,TCTACCTCCTCACCGTCGTCGCCGTGGTCACCGCGGCTTCCGGAGTCACCTAGTGCAG,9450 fluorescence intensity (a.u.)
14,GCCGACTACCACCACAACCGCCTCTTGCTGCTATGGATCGCGGAGTCACCTAGTGCAG,9110 fluorescence intensity (a.u.)
15,AAACTGCTAAACTGCGAGCTCATCACAATCTGGAACCATGCGGAGTCACCTAGTGCAG,8340 fluorescence intensity (a.u.)
16,TTTCATGCGTTCCAAGTTGTCATTACTCCTTTGTACTCTCCGGAGTCACCTAGTGCAG,10700 fluorescence intensity (a.u.)
17,CTGGCCTCTCTGCCGCCGCCGCCTCCCAGCCAGCGCTGATCGGAGTCACCTAGTGCAG,9060 fluorescence intensity (a.u.)
18,AACACCTTCATCTTCATCTTCTACCGCCAGGCAGCTGCCTCGGAGTCACCTAGTGCAG,10400 fluorescence intensity (a.u.)
19,GGCTATACTATTGATCTCGCTCTTAGCGCCATTTTCCAACCGGAGTCACCTAGTGCAG,10800 fluorescence intensity (a.u.)
20,GTCCAGTACATTATTTCCTTCACTTGAAATGTTTGAAGAACGGAGTCACCTAGTGCAG,8560 fluorescence intensity (a.u.)
21,GGCGCTTGTGTGCGTATTTTTGGGCGCGTATTTTTCGTTTCGGAGTCACCTAGTGCAG,8300 fluorescence intensity (a.u.)

# Copied from the list.
# Value of AGGCTATCGTATGACTTTCTTCTGCTTTCATTTGTGTTCACGGAGTCACCTAGTGCAG under binding signal: 15300 fluorescence intensity (a.u.)
# Value of TATAGTTGTGTACTAGTGTCACTCACGCCACCCGTCTCATCGGAGTCACCTAGTGCAG under binding signal: 8870 fluorescence intensity (a.u.)
# Value of ATATAGCCTACTACTAGCTCCAAATCATCTATAGTCAATGCGGAGTCACCTAGTGCAG under binding signal: 8120 fluorescence intensity (a.u.)

# Next records.

row,Sequence,binding signal
1,ACACACACCTGAATGTCATATGCTCGTCAGAAATATATTTCGGAGTCACCTAGTGCAG,10000 fluorescence intensity (a.u.)
2,GCGGAGTTTTGTACCTTTTCTACCATGAATTGAGCATTTCCGGAGTCACCTAGTGCAG,8650 fluorescence intensity (a.u.)
3,TTATCCGGCGGGCACTTTTCCTGCTGCATTATCTTTATATCGGAGTCACCTAGTGCAG,9310 fluorescence intensity (a.u.)
4,TCCGTCCCTGCAGTCACCTTATTGGTCAAATTTTAAATATCGGAGTCACCTAGTGCAG,13400 fluorescence intensity (a.u.)
5,TGGGTCTGTTTGGGGAGCTTCTAGCTGCAGCAGTTTCTTACGGAGTCACCTAGTGCAG,10300 fluorescence intensity (a.u.)
6,GGAGCCTGTAGCATGTGGTGGAGTAGTCTTTTTTTTTTCCCGGAGTCACCTAGTGCAG,8580 fluorescence intensity (a.u.)
7,GGCGGTGGATCTCGTGTACCGCGGCTGGGGCAGGGATGGGCGGAGTCACCTAGTGCAG,10900 fluorescence intensity (a.u.)
8,AAATTATCATGGTCGTCTTCATTCCATTCAAGCAAAAAAACGGAGTCACCTAGTGCAG,8490 fluorescence intensity (a.u.)
9,ATCTGCTCCAATAAGCATATGCATTCCTTCAATTCCAGCTCGGAGTCACCTAGTGCAG,8120 fluorescence intensity (a.u.)
10,GCATGTATCTTGTGCACCGGGCCTTCGTTGGTTTCCCGTACGGAGTCACCTAGTGCAG,9770 fluorescence intensity (a.u.)
11,AGCTGCCCTAGGTCTACCTCCACCCCTGCACCATATCACACGGAGTCACCTAGTGCAG,8060 fluorescence intensity (a.u.)
12,CAAATGTAATCCATCCGTTCTTTGTCCTTTTGTATTGAATCGGAGTCACCTAGTGCAG,8250 fluorescence intensity (a.u.)
13,TGTGCCGTTTTCTAACGCCGTCCTTTCATGCGTTATTCCTCGGAGTCACCTAGTGCAG,13500 fluorescence intensity (a.u.)
14,AGATGCTCCATCCCATCCTCCTTTGACTTCTTGCCGCCGCCGGAGTCACCTAGTGCAG,8380 fluorescence intensity (a.u.)
15,ATTTGCAAATTGAGTTTCTTGTGTTCATCTTGTTCTTGCTCGGAGTCACCTAGTGCAG,8180 fluorescence intensity (a.u.)
16,AACCACCATCTCCCCTGAAACCAACACCGGCAAAACACAACGGAGTCACCTAGTGCAG,8780 fluorescence intensity (a.u.)
17,TCAGACTTGCATTCTGTGATTGCTTTGGTTACTGCAACTTCGGAGTCACCTAGTGCAG,8100 fluorescence intensity (a.u.)
18,GGTGATTCTGTGCTGTTGATGATGTTTTCTCTGAAGATTCCGGAGTCACCTAGTGCAG,11500 fluorescence intensity (a.u.)
19,TGTTGTTGGCGATGTCGGCGATGTCGGCGGCGGGCGGCGGCGGAGTCACCTAGTGCAG,9470 fluorescence intensity (a.u.)
20,ACTCGTCTGCGACCGACGCCGCCTCATCCGCGCCCGCCGCCGGAGTCACCTAGTGCAG,9240 fluorescence intensity (a.u.)
21,ATGTGGTTGGTTGGTGACTTTTTATGCACACGCCACCTACCGGAGTCACCTAGTGCAG,8170 fluorescence intensity (a.u.)
